# Literature values, collected in US12011509B2, “Gold nano-delivery system for pain and cancer therapy” (Tree of Knowledge International Corp., priority 2019, dated 2024).
# Some results were stated once for a whole list of compounds, not compound by compound. At least one compound was matched to its structure with a doubt left.
# Conditions: oral delivery
row,Structure (SMILES),time of peak concentrations post dose [h]
1,"C=C(C)[C@@H]1CCC(C)=C[C@H]1c1c(O)cc(CCCCC)cc1O [CBD, cannabidiol]",1 to 5
2,"CCCCCc1cc(O)c2c(c1)OC(C)(C)[C@@H]1CCC(C)=C[C@@H]21 [THC, Delta-9-Tetrahydrocannabinol]",1 to 5
